Laboratory results as given in article PMC7378191.
No constants are given. Whether binding was seen depends on the method and setting. In cells and extracts the contact can be indirect. Some results given as binding are weak or reduced against the parent protein; the word gives no strength. Sequences can lack the tags named with a protein.

Amino acid sequences for entries named in this document (tags omitted).
UniProt Q92793: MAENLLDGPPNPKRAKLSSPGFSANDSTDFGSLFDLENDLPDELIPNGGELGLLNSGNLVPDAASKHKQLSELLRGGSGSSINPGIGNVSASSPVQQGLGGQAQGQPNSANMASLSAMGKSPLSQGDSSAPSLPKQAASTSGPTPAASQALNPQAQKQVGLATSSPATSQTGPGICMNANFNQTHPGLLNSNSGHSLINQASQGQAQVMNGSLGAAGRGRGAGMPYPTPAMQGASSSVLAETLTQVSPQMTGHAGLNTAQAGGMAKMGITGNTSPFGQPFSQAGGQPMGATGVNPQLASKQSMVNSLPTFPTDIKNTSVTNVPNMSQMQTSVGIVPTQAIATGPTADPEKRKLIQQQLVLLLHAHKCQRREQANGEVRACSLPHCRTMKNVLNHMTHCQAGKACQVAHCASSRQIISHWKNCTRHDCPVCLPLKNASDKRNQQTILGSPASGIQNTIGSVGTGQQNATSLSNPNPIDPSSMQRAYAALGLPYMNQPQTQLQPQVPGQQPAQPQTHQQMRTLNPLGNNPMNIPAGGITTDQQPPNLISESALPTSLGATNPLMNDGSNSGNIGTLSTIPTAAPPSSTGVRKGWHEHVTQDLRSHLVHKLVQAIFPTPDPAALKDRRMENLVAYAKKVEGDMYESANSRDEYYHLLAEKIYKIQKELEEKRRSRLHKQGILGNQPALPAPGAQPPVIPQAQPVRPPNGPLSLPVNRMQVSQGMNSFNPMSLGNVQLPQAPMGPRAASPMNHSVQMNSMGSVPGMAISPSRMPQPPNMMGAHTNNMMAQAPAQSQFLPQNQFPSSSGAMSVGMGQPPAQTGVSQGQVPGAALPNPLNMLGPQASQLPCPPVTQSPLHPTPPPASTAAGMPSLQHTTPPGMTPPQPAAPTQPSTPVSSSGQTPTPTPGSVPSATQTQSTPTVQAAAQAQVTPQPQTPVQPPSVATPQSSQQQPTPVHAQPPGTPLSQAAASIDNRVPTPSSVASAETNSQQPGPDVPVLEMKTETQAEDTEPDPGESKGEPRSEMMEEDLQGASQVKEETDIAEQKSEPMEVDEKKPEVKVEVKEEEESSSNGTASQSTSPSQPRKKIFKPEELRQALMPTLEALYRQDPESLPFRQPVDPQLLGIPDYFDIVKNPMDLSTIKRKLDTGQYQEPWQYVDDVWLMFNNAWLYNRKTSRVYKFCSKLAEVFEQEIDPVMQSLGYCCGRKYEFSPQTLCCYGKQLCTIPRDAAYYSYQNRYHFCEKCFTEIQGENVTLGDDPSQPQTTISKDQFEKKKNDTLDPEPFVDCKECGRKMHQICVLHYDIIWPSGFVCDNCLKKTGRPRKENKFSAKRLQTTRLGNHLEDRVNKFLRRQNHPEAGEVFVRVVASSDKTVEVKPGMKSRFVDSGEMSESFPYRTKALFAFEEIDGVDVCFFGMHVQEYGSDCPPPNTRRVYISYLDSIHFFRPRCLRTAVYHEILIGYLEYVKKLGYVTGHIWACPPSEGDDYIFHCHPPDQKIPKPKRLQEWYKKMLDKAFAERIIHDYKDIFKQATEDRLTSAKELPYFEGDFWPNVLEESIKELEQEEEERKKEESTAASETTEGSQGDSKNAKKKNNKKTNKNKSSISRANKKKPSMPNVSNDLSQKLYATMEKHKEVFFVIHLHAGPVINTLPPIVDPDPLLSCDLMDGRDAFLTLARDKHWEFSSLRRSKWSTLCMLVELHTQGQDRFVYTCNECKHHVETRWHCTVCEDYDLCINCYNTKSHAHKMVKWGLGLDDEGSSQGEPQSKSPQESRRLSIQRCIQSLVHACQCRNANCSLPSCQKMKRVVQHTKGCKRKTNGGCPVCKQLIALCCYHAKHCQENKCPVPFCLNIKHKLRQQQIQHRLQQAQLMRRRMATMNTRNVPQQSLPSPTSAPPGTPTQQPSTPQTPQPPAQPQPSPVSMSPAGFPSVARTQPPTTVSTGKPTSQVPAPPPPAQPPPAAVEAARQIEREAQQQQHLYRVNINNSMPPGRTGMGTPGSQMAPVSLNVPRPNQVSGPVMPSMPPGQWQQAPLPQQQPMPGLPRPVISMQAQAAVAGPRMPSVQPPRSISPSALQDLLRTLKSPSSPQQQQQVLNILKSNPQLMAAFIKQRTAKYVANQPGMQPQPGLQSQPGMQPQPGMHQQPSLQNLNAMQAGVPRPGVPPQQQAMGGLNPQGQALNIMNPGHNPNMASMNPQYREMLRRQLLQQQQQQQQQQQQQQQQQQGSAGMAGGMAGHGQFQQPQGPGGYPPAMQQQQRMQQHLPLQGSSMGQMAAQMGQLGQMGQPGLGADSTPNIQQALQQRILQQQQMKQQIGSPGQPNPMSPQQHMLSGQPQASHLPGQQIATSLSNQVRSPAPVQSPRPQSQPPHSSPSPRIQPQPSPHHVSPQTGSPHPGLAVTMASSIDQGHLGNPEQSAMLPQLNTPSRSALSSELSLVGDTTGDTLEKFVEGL

T1: Flag-tagged HSD17B10 (17-beta-hydroxysteroid dehydrogenase 10), wild type (human) (UniProt Q99714)
T1 sequence: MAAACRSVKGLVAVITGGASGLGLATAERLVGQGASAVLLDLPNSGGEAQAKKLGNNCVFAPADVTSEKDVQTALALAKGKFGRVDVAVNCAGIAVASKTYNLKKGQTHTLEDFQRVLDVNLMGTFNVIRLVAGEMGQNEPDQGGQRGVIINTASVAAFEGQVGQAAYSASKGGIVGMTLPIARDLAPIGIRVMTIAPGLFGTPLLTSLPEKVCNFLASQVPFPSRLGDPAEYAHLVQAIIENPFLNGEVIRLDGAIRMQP


Key:
[1] = target: T1, Flag-tagged HSD17B10 (17-beta-hydroxysteroid dehydrogenase 10), wild type (human); assay: co-IP; tagged proteins co-transfected into HEK293T cells; lysis in BC100 buffer (100 mM NaCl, 20 mM pH7.3 Tris, 20% glycerol, 0.2% NP-40); immunoprecipitation with anti-Flag M2 beads at 4 °C overnight; western blot
[2] = target: HA-tagged CBP (acetyltransferase) (UniProt Q92793); assay: co-IP; HA-tagged CBP and Flag-tagged HSD17B10 co-transfected into HEK293T cells; immunoprecipitation with anti-HA beads at 4 °C overnight; western blot

Row | Molecule | binding [1] | binding [2]
1 | HA-tagged CBP (acetyltransferase) (from UniProt Q92793 1-2442) (enzyme) | binds | 
2 | Flag-tagged HSD17B10 (17-beta-hydroxysteroid dehydrogenase 10), wild type (protein, UniProt Q99714 1-261) MAAACRSVKGLVAVITGGASGLGLATAERLVGQGASAVLLDLPNSGGEAQAKKLGNNCVFAPADVTSEKDVQTALALAKGKFGRVDVAVNCAGIAVASKTYNLKKGQTHTLEDFQRVLDVNLMGTFNVIRLVAGEMGQNEPDQGGQRGVIINTASVAAFEGQVGQAAYSASKGGIVGMTLPIARDLAPIGIRVMTIAPGLFGTPLLTSLPEKVCNFLASQVPFPSRLGDPAEYAHLVQAIIENPFLNGEVIRLDGAIRMQP |  | binds
